The nature of this data set: Fluorescence lifetime (TCSPC) of the complexes alone. The following applies: pH 7.40; for α1 / α2: amplitude, complex alone; for τ1 / τ2: fluorescence lifetime of the complex alone. The data set is classed as physicochemical.

Regarding `[In+3].[O-]c1cccc2cccnc12.[O-]c1cccc2cccnc12.[O-]c1cccc2cccnc12` [InQ3, Tris(8-Quinolinolato)indium(III)], the α1 is given as 75 ± 4%, the α2 is 25 ± 4%, the τ1 is reported as 0.80 ± 0.03 ns and the τ2 was found to be 1.41 ± 0.07 ns.

The molecule `[Ga+3].[O-]c1cccc2cccnc12.[O-]c1cccc2cccnc12.[O-]c1cccc2cccnc12` [GaQ3, Tris(8-Quinolinolato)gallium(III), reference compound] gave a α1 of 57 ± 5%, a α2 of 43 ± 5%, a τ1 of 0.54 ± 0.04 ns and a τ2 of 1.23 ± 0.03 ns.

The record behind these values is paper PMC8960621, “Solution speciation and human serum protein binding of indium(III) complexes of 8-hydroxyquinoline, deferiprone and maltol” (Journal of Biological Inorganic Chemistry, 2022).
